# Reference: PMC9651203
# These are yes or no findings as the source states them, for the method shown. In cells and extracts the contact can be indirect. A result given as binding can be weak or reduced; the word gives no strength.
# B1: DNA ligase 3 (protein, UniProt P49916 43-1009)
# chain: LLHGHPLFLRRKPVLSFQGSHLRSRATYLVFLPGLHVGLCSGPCEMAEQRFCVDYAKRGTAGCKKCKEKIVKGVCRIGKVVPNPFSESGGDMKEWYHIKCMFEKLERARATTKKIEDLTELEGWEELEDNEKEQITQHIADLSSKAAGTPKKKAVVQAKLTTTGQVTSPVKGASFVTSTNPRKFSGFSAKPNNSGEAPSSPTPKRSLSSSKCDPRHKDCLLREFRKLCAMVADNPSYNTKTQIIQDFLRKGSAGDGFHGDVYLTVKLLLPGVIKTVYNLNDKQIVKLFSRIFNCNPDDMARDLEQGDVSETIRVFFEQSKSFPPAAKSLLTIQEVDEFLLRLSKLTKEDEQQQALQDIASRCTANDLKCIIRLIKHDLKMNSGAKHVLDALDPNAYEAFKASRNLQDVVERVLHNAQEVEKEPGQRRALSVQASLMTPVQPMLAEACKSVEYAMKKCPNGMFSEIKYDGERVQVHKNGDHFSYFSRSLKPVLPHKVAHFKDYIPQAFPGGHSMILDSEVLLIDNKTGKPLPFGTLGVHKKAAFQDANVCLFVFDCIYFNDVSLMDRPLCERRKFLHDNMVEIPNRIMFSEMKRVTKALDLADMITRVIQEGLEGLVLKDVKGTYEPGKRHWLKVKKDYLNEGAMADTADLVVLGAFYGQGSKGGMMSIFLMGCYDPGSQKWCTVTKCAGGHDDATLARLQNELDMVKISKDPSKIPSWLKVNKIYYPDFIVPDPKKAAVWEITGAEFSKSEAHTADGISIRFPRCTRIRDDKDWKSATNLPQLKELYQLSKEKADFTVVAGDEGSSTTGGSSEENKGPSGSAVSRKAPSKPSASTKKAEGKLSNSNSKDGNMQTAKPSAMKVGEKLATKSSPVKVGEKRKAADETLCQTKVLLDIFTGVRLYLPPSTPDFSRLRRYFVAFDGDLVQEFDMTSATHVLGSRDKNPAAQQVSPEWIWACIRKRRLVAPC
# Target: Mycoplasma fermentans DnaK-V5-His (Mycoplasma fermentans)
# Experiment: co-IP
binder,measurement,value
B1,binding,binds
